Some of the results follow. Most entries show no effect beyond the scatter of the controls.

Amino acid sequences for entries named in this document (tags omitted). A change or cut given only in a name is not applied to a line headed by its entry.
UniProt P0ADA3: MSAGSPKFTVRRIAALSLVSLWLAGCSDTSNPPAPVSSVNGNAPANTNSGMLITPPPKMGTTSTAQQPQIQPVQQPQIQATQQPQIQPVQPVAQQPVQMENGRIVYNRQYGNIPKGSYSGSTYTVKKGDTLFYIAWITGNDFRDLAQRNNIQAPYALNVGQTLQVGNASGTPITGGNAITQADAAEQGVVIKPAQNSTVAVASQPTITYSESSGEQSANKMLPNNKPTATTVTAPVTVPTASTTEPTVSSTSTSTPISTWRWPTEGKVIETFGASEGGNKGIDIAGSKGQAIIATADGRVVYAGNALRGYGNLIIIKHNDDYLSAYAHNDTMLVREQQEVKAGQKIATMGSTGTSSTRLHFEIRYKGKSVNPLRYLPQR
UniProt P0AFW0: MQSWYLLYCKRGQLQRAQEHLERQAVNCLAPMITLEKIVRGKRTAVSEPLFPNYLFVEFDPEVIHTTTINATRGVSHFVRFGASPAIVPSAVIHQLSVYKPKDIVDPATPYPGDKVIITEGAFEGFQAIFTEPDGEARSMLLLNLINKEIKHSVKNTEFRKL
UniProt P0AFK9: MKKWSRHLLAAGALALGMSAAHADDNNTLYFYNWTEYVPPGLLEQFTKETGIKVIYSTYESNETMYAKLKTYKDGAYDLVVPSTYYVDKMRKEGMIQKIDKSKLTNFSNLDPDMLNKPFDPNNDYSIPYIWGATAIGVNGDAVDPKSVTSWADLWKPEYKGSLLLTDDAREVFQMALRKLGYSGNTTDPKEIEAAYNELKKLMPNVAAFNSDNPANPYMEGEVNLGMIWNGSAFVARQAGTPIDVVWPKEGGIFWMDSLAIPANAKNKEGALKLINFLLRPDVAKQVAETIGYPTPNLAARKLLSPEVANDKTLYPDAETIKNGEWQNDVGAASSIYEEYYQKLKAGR
UniProt P0AD19: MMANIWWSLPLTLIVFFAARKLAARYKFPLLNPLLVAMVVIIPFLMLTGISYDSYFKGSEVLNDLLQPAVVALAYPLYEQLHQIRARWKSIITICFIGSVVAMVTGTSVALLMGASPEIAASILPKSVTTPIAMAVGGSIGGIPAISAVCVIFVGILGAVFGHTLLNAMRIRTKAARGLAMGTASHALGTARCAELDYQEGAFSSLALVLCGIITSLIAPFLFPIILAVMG
UniProt P0AEC3: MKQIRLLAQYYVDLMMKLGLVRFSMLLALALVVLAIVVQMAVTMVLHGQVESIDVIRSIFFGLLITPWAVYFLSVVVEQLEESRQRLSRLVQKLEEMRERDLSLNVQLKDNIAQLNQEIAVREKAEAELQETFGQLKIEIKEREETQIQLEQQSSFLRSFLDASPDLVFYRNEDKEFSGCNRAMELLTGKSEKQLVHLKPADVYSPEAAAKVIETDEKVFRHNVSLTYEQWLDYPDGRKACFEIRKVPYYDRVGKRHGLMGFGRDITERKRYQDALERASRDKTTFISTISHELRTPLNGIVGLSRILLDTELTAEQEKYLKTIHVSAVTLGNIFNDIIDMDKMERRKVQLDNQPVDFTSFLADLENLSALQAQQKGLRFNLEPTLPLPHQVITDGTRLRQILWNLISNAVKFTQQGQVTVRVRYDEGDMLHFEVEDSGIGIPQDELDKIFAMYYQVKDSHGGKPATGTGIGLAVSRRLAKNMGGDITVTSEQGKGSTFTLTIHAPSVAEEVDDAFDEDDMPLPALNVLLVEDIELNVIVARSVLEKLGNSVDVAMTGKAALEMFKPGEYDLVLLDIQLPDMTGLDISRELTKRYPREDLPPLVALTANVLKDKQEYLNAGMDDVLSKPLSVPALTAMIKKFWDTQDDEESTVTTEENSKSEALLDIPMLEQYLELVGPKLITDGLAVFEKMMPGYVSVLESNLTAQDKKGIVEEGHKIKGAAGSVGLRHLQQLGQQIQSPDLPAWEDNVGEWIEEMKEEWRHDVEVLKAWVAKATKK
UniProt P0ADZ7: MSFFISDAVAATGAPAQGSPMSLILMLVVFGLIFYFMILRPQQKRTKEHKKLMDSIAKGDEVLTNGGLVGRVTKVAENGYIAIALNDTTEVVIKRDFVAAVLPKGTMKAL
UniProt P0AF98: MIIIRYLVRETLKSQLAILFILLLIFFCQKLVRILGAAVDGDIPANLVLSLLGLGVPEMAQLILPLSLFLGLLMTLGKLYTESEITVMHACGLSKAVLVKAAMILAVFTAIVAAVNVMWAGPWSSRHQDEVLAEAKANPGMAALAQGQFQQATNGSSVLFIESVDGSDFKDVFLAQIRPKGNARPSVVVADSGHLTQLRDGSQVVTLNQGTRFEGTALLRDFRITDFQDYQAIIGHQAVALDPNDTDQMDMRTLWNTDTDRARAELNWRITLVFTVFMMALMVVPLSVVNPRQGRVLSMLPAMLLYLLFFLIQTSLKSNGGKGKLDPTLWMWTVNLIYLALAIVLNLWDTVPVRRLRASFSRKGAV
UniProt P0AFF4: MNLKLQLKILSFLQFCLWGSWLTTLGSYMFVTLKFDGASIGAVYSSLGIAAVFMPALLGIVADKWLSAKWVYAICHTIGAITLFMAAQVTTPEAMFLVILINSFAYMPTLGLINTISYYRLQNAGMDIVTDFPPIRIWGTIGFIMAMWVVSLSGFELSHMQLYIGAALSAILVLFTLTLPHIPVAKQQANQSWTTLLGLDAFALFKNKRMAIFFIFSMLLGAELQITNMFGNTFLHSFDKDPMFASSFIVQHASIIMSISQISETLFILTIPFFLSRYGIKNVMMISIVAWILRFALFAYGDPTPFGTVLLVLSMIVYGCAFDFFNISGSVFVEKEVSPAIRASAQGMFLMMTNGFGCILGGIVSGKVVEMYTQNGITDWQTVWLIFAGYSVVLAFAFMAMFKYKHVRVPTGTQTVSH
UniProt P0AEM4: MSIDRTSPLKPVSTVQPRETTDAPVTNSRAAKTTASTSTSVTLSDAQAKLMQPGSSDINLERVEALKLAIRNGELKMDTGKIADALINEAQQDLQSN
UniProt P0AD42: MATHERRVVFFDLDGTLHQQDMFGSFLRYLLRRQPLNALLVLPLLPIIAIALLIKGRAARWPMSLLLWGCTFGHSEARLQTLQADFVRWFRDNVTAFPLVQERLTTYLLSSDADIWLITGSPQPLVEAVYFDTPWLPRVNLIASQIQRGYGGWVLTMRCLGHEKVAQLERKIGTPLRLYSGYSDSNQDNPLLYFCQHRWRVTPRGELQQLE
UniProt P0AG78: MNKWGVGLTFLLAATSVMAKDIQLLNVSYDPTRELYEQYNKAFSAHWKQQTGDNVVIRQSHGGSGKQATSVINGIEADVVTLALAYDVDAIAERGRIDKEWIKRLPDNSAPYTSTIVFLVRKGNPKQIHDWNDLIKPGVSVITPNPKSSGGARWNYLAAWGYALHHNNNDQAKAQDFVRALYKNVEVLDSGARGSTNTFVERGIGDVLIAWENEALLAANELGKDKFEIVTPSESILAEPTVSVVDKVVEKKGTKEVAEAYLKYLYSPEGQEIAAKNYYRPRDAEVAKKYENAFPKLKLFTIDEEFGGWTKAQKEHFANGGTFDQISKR
UniProt P0AFP2: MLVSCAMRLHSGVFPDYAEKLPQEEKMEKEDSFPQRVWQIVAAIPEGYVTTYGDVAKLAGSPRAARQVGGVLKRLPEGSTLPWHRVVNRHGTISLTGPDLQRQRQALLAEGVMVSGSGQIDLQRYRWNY
UniProt P0AD44: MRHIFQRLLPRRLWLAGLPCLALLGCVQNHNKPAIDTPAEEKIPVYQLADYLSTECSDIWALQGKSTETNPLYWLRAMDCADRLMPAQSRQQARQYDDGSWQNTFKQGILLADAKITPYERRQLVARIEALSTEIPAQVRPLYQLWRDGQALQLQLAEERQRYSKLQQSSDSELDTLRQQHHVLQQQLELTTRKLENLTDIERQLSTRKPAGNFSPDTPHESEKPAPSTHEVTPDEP
UniProt P0ADM4: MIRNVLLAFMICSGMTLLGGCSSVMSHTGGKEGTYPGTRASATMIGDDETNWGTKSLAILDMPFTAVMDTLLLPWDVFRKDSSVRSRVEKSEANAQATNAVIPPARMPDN
UniProt P0AFW8: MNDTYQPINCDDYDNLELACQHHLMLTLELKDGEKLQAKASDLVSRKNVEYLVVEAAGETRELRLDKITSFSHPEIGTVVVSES
UniProt P0AFI5: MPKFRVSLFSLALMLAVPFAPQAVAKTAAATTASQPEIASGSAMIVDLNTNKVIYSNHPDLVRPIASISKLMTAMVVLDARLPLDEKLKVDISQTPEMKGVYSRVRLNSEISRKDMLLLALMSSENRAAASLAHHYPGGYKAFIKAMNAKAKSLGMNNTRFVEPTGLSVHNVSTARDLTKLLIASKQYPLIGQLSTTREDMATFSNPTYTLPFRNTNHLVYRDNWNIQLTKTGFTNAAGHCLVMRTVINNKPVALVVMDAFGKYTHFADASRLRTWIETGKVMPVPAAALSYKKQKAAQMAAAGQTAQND
UniProt P0AF96: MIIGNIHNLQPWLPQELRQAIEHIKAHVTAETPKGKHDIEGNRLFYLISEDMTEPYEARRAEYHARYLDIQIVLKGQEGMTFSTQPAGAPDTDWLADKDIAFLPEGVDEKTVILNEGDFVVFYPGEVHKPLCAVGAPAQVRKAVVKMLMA
UniProt P0AFZ1: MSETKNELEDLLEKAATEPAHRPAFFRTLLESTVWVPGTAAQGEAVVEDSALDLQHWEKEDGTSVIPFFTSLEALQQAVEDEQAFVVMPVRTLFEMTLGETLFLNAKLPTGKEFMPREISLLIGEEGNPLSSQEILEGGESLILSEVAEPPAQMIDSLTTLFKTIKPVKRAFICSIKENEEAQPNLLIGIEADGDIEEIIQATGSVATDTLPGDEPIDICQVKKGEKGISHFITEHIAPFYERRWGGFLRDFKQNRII
UniProt P0ADP7: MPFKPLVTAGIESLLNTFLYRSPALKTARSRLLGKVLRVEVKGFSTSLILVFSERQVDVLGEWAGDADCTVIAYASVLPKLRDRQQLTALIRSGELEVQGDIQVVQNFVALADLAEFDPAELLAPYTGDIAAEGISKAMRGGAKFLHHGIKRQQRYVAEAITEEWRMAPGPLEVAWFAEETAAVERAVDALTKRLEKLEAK
UniProt P0AED5: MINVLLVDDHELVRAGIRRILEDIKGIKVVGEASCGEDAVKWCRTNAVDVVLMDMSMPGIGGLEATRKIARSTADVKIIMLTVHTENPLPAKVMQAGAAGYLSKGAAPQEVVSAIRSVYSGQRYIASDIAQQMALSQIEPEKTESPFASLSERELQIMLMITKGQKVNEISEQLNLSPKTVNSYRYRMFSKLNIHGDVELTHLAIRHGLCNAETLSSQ
UniProt P0AFR0: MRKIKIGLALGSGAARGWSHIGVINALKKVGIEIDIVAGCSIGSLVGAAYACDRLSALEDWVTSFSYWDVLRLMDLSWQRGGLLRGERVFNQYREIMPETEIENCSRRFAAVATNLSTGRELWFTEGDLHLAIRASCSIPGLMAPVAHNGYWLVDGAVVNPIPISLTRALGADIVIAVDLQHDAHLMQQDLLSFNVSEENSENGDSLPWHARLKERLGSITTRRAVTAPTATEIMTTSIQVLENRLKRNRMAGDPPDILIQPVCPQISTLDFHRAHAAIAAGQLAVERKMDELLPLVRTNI

Compound in the experiment: CC1(C)S[C@@H]2[C@H](NC(=O)[C@H](N)c3ccccc3)C(=O)N2[C@H]1C(=O)O [ampicillin]
Put plainly: log2 fold change of tryptic peptide abundance, ligand vs vehicle (limited proteolysis) (log2 ratio); higher = more trypsin-susceptible (destabilized). Conditions: ligand concentration: 10 uM; sample: E. coli crude lysate.
Turning to “UniProt P0ADA3 (peptide sequence: GSYSGSTYTVKK, peptide start residue: 116)”, the log2 fold change was determined as 0.253.

For “UniProt P0AFW0 (peptide sequence: SMLLLNLINKEIK, peptide start residue: 139)”, the log2 fold change is -0.159.

In the case of “UniProt P0AFK9 (peptide sequence: SVTSWADLWKPEYK, peptide start residue: 147)”, the log2 fold change was -0.418.

In the case of “UniProt P0AD19 (peptide sequence: GLAMGTASHALGTAR, peptide start residue: 178)”, the log2 fold change is -0.0318.

For the target “UniProt P0AEC3 (peptide sequence: KRYQDALER, peptide start residue: 270)”, the log2 fold change is 0.94.

As to “UniProt P0ADZ7 (peptide sequence: KLMDSIAK, peptide start residue: 51)”, the log2 fold change came to 0.287.

As to “UniProt P0AF98 (peptide sequence: PSVVVADSGHLTQLR, peptide start residue: 185)”, the log2 fold change worked out at 0.382.

For “UniProt P0AFF4 (peptide sequence: VPTGTQTVSH, peptide start residue: 409)”, the log2 fold change is 0.00809.

In the case of “UniProt P0AEM4 (peptide sequence: LMQPGSSDINLERVEALK, peptide start residue: 50)”, the log2 fold change is -0.187.

In the case of “UniProt P0AD42 (peptide sequence: GYGGWVLTMR, peptide start residue: 149)”, the log2 fold change was 0.291.

For “UniProt P0AG78 (peptide sequence: NVEVLDSGAR, peptide start residue: 184)”, the log2 fold change is -0.378.

In the case of “UniProt P0AFP2 (peptide sequence: RLPEGSTLPWHR, peptide start residue: 74)”, the log2 fold change worked out at 0.18.

Consider “UniProt P0AD44 (peptide sequence: QQHHVLQQQLELTTR, peptide start residue: 179)”, for which the log2 fold change is 0.289.

For “UniProt P0ADM4 (peptide sequence: VEKSEANAQATNAVIPPAR, peptide start residue: 88)”, the log2 fold change was -0.123.

For the target “UniProt P0AFW8 (peptide sequence: ASDLVSRK, peptide start residue: 40)”, the log2 fold change is -0.11.

As for “UniProt P0AFI5 (peptide sequence: TGFTNAAGHCLVMR, peptide start residue: 232)”, the log2 fold change is -0.873.

Turning to “UniProt P0AF96 (peptide sequence: AHVTAETPK, peptide start residue: 26)”, the log2 fold change came out at 0.0463.

Regarding “UniProt P0AFZ1 (peptide sequence: GISHFITEHIAPFYERR, peptide start residue: 228)”, the log2 fold change was -0.137.

In the case of “UniProt P0ADP7 (peptide sequence: QQLTALIR, peptide start residue: 85)”, the log2 fold change is -0.0393.

As for “UniProt P0AED5 (peptide sequence: ELQIMLMITK, peptide start residue: 154)”, the log2 fold change was -0.316.

On to “UniProt P0AFR0 (peptide sequence: GWSHIGVINALKK, peptide start residue: 17)”, for which the log2 fold change stood at 0.353.

For the origin of these results see the supplement of paper PMC12819154, “High-throughput peptide-centric local stability assay extends protein–ligand identification to membrane proteins, tissues and bacteria” (Nature Structural & Molecular Biology, 2025).
